# Results as given in patent publication US11739122B2, “Glycopeptide antibiotic compounds, methods for producing the same, and uses thereof” (Academia Sinica, priority 2019, dated 2023).
# Some entries share one result that the patent states for a list of compounds. For part of these data: At least one structure is not confirmed: it was looked up by name or label, or the drawing left a doubt.
# Columns and labels:
# A. baumannii ATCC 19606 = assay: MIC, broth microdilution; type: cell-based, Acinetobacter baumannii
# Procedure: Determination of Minimal Inhibitory Concentration (MIC) for Vancomycin, Teicoplanin and Tei-Analogs Versus Selected Strains
# MICs were determined by the broth microdilution method. Specifically, 12 Colonies of the test strain were picked up from 18-24 hour agar cultures and freshly inoculated into broth mediums until reaching the turbidity of a 0.5 McFarland standard. The broth culture was adjusted with broth medium to approximately 1×10^8 CFUmL^−1. […] The plates were incubated in 37° C. for 18-24 hours and monitored for the wells of the positive control, where cells grew, and the wells of the negative control, where wells should not grow. The MIC value was determined for the concentration of a test compound, at which there was no visible growth in the well.
# [1] = system: VRE ATCC 700221 (vanA type); assay: Thin-section TEM, cell wall morphology; type: cell-based, enterococci; details: VRE ATCC700221, vanA type
# Procedure: Thin-Section Transmission Electron Microscopy (TEM)
# An overnight cultured MRSA ATCC 700787, VRE ATCC 700221 or A. baumannii ATCC 19606 was individually sub-cultured into a fresh medium. Bacteria at the exponential phase were treated with a given test compound at a concentration of 4×MIC for 1-4 hour at 37° C. and followed by wash and resuspension in PBS. Bacteria cells for the TEM analysis were prepared as follows: Cells were fixed with 2.5% glutaraldehyde for 30 minutes. After the fixation, cells were washed twice with PBS and fixed with 1% osmium tetraoxide for another 30 minutes. All the buffer was removed with distilled water. The cells were then stained with 1% uranyl acetate and dehydrated with a graded ethanol solution. Cells were embedded in resin. Finally, each sample was cut into thin slices of approximately 90 nm with a glass knife and stained with uranyl acetate. The images of bacterial morphological were recorded.
# The cell wall was almost intact but interspersed with holes, where cell fluids outflew leading cells to death. In general, VRE was immune to compound 1 or 2 (>256 μgmL^−1), median sensitive to compound 14 (32 μgmL^−1), but highly sensitive to compound 28 (4 μgmL^−1). […]
Molecule,re-sensitization of AB in contrast to compound 1 and 2 (A. baumannii ATCC 19606; AB ATCC 19606) [folds],sensitivity of VRE to compound (concentration) [1] [µg/mL],MIC on AB (A. baumannii ATCC 19606; A. baumannii ATCC 19606) [µg/mL]
"CN(C)[C@H]1C(=O)N[C@@H]2Cc3ccc(c(Cl)c3)Oc3cc4cc(c3O)Oc3ccc(cc3Cl)[C@@H](O[C@@H]3O[C@H](CO)[C@@H](O)[C@H](O)[C@H]3NC(=O)CCCCCCCNC(=N)NC(=N)N)[C@@H]3NC(=O)[C@H](NC(=O)[C@@H]4NC(=O)[C@@H](NC2=O)c2cc(O)cc(c2)Oc2cc1ccc2O)c1ccc(O)c(c1)-c1c(O)cc(O)cc1[C@@H](C(=O)O)NC3=O [Compound 25, r1,Me2-r6,C8-diguanidino-Tei]",> 8,,
"teicoplanin [Compound 1, reference compound]",,> 256,> 189.97
